# Measured values as given in the supplement of paper PMC6411743.
# Protein sequences, listed by entry. Tags and fused reporters are not part of them. Lines headed by an entry give the natural chain unless they say otherwise; changes in a name come on top.
# UniProt Q9Y5L4: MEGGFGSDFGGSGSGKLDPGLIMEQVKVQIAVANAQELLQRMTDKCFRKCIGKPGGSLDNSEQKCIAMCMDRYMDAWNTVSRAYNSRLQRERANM
# UniProt Q9Y5Y2: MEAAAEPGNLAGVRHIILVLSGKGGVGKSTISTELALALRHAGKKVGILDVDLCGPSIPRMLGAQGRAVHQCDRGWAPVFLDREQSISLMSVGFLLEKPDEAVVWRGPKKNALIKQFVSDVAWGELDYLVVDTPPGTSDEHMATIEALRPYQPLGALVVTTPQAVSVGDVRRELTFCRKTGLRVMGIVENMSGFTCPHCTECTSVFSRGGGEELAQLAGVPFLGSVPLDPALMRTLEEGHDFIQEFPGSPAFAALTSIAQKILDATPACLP
# UniProt Q9Y6J9: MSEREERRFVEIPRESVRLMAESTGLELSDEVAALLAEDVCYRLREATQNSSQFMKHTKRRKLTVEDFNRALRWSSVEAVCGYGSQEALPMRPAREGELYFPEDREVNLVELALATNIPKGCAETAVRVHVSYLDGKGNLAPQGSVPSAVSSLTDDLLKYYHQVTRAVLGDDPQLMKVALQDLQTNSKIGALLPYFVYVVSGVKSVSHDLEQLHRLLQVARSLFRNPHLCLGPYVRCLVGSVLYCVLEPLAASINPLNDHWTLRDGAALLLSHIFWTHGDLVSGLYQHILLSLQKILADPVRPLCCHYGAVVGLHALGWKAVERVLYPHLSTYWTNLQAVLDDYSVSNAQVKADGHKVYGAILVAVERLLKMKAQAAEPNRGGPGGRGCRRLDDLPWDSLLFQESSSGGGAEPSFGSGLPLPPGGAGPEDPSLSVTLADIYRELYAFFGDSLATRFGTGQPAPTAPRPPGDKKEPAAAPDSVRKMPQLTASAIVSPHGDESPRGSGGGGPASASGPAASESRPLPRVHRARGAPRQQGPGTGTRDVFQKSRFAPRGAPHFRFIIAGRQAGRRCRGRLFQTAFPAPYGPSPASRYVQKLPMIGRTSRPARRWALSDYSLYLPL
# UniProt Q9Y6D9: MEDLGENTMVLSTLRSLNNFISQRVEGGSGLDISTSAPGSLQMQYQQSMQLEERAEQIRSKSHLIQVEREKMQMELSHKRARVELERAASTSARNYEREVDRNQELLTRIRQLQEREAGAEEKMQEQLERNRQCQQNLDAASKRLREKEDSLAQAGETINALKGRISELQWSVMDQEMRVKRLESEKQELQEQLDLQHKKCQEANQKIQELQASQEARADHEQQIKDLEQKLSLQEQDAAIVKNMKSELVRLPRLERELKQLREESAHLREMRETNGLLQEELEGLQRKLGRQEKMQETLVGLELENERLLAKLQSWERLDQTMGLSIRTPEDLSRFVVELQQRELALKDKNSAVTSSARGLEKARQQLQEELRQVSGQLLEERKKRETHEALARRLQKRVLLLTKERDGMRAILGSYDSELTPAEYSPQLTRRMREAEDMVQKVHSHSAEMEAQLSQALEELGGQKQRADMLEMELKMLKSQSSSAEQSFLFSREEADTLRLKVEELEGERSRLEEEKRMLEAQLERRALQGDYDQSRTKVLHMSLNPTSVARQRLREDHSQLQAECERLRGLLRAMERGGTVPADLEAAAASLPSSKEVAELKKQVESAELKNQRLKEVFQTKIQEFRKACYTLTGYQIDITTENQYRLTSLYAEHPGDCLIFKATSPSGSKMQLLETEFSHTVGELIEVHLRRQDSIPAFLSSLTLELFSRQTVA
# UniProt Q9Y4G8: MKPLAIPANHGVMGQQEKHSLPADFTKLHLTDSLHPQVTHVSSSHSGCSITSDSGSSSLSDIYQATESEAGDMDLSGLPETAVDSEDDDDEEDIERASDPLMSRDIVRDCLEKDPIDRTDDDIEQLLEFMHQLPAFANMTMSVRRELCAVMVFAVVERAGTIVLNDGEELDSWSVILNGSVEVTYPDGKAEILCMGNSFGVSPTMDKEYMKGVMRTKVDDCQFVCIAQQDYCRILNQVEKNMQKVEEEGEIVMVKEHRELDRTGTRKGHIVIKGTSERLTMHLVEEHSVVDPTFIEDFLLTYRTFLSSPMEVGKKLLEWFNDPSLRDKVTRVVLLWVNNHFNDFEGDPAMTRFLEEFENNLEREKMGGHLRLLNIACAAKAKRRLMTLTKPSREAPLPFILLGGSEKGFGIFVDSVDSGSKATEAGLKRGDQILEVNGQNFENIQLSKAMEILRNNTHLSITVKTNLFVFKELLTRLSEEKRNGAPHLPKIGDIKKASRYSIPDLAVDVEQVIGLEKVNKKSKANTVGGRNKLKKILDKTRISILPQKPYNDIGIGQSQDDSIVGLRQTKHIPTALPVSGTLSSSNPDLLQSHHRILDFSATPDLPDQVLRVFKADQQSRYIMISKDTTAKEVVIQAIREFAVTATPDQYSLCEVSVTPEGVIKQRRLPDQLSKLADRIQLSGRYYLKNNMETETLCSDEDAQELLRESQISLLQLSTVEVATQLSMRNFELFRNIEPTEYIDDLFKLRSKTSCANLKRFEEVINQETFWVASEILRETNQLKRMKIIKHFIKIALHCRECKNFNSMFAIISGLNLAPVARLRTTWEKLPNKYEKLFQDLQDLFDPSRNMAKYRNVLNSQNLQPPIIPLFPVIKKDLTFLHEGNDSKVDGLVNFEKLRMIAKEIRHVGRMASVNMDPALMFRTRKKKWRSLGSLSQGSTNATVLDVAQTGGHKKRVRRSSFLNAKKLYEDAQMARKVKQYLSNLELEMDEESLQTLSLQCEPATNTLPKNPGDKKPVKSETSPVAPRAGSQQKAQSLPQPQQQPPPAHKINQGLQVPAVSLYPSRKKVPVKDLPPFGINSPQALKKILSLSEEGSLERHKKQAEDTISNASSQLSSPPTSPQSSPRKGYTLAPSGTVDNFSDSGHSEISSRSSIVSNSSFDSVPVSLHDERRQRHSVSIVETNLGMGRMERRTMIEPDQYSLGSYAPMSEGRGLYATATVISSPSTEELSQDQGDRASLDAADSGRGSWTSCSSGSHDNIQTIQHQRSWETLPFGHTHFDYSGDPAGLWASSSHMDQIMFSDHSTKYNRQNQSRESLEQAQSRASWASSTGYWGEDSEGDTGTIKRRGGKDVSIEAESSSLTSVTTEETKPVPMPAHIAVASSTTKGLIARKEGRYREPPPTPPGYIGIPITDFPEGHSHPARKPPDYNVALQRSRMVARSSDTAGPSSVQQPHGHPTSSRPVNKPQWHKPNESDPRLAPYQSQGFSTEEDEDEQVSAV
# UniProt Q9Y450, whole entry: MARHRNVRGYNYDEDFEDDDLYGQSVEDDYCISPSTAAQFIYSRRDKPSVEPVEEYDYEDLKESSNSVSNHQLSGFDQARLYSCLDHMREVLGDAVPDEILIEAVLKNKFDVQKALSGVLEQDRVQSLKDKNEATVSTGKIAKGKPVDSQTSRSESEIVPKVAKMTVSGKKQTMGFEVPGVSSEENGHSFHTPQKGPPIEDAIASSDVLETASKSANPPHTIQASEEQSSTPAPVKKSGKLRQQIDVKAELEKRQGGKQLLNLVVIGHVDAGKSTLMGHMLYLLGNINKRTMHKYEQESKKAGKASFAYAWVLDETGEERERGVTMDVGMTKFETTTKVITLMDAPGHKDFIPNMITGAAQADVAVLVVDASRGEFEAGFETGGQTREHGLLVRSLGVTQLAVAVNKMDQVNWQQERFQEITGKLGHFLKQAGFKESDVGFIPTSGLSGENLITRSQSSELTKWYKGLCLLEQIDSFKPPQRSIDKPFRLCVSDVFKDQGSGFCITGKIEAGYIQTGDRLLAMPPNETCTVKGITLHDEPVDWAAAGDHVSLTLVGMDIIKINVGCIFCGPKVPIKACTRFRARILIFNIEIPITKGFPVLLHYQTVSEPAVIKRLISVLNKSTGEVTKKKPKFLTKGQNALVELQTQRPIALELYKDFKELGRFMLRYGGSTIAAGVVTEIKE
# UniProt Q9Y6W5, whole entry: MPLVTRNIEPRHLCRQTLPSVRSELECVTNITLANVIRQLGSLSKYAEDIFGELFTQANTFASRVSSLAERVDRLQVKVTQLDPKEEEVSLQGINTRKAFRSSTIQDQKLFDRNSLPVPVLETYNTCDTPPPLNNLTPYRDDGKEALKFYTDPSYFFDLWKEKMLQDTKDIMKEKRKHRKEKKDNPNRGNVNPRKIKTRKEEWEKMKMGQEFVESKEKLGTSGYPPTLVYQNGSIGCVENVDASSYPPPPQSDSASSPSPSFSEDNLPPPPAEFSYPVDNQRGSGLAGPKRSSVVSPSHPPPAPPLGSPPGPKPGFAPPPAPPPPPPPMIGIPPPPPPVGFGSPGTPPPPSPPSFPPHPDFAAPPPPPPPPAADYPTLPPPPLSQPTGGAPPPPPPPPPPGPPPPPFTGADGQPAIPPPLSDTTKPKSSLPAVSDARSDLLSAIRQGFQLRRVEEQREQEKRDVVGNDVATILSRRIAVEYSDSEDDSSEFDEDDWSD
# UniProt Q9Y5Z4: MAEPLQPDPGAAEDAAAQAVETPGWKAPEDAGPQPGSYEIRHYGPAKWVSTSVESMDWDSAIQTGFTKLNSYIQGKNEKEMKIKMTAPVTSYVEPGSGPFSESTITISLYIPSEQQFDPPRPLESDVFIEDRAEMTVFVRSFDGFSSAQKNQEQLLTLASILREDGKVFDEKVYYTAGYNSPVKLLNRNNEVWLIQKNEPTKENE
# UniProt Q5VZ89: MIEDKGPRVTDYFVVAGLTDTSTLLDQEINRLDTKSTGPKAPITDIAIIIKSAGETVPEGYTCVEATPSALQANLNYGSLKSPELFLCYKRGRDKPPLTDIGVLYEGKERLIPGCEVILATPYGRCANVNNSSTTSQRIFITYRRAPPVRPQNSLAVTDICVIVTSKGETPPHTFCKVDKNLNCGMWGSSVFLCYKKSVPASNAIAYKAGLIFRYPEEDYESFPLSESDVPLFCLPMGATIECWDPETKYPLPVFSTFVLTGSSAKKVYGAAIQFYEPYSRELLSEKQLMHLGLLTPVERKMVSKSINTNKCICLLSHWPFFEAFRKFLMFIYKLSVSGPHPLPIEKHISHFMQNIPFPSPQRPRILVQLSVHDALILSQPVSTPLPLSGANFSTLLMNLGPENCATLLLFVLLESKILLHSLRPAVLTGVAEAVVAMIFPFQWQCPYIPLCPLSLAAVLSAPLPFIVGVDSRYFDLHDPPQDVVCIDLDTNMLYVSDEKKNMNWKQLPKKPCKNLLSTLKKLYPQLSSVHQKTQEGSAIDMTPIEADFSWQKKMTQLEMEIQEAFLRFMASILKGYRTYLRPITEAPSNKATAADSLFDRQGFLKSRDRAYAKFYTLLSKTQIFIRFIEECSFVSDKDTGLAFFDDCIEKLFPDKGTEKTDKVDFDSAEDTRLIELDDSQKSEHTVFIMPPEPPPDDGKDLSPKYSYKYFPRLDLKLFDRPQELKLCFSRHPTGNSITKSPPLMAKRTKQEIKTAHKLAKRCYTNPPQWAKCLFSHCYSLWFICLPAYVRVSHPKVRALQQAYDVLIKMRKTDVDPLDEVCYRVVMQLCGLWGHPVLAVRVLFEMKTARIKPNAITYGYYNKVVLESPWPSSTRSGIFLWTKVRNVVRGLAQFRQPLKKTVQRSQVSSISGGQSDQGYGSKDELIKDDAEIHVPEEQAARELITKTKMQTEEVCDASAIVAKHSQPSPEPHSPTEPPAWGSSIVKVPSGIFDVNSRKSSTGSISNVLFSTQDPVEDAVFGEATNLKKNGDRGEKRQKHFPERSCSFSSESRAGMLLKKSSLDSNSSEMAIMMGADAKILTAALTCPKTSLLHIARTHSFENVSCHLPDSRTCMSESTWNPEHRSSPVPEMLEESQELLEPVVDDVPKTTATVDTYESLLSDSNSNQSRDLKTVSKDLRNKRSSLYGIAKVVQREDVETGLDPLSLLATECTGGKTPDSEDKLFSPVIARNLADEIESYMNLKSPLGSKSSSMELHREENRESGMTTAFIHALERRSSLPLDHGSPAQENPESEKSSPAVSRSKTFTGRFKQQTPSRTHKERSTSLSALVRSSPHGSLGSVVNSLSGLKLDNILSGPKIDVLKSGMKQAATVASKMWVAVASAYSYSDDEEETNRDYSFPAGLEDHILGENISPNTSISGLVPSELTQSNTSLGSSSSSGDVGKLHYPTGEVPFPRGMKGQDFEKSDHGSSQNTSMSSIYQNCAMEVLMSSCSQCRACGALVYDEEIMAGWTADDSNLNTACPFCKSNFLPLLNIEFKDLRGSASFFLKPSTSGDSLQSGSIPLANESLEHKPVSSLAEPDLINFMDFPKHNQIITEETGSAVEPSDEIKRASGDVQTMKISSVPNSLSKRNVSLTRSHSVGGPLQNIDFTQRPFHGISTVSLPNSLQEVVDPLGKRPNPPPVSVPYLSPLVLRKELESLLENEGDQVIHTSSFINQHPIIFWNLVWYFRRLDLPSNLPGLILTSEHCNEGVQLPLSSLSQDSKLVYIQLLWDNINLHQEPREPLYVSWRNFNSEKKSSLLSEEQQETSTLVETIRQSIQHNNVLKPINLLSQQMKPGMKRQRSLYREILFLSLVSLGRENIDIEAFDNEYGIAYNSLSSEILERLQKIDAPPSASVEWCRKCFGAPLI
# ± gives the standard deviation of the averaged measurements. This is a selection; strong and weak results do not stand in their true shares. Most values lie at the level of the controls, where differences are scatter.
# Compound: Nc1ncnc2c1ncn2[C@@H]1O[C@H](COP(=O)(O)OP(=O)(O)NP(=O)(O)O)[C@@H](O)[C@H]1O [adenylyl imidodiphosphate]
# Assay: NP40-soluble protein abundance relative to vehicle (solubility fold change) (ratio); higher = more soluble protein in presence of AMP-PNP
# Procedure, shortened: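 Data come from three independent experiments in which Dounce-homogenised Jurkat crude lysate was treated at eight concentrations from 0.1 to 10 mM. Treatment ran 10 min at room temperature and then 3 min at 37 °C, after which 0.8% NP40 and benzonase were added for 60 min at 4 °C before ultracentrifugation. The supernatant underwent TMT labelling and LC-MS/MS, and vsn-normalised intensities were expressed as fold change against the detergent-processed vehicle in each replicate.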
target,measurement,setting,value
UniProt Q9Y6I3 and related entries,NP40-soluble protein abundance,concentration: 0.1mM,0.993 ± 0.029
same,NP40-soluble protein abundance,concentration: 0.5mM,0.983 ± 0.021
TACC3 (UniProt Q9Y6A5),NP40-soluble protein abundance,concentration: 0.1mM,0.967 ± 0.02
same,NP40-soluble protein abundance,concentration: 0.5mM,0.98 ± 0.053
RABGAP1 (UniProt Q9Y3P9),NP40-soluble protein abundance,concentration: 0.1mM,0.964 ± 0.026
same,NP40-soluble protein abundance,concentration: 0.5mM,0.958 ± 0.038
PSAT1 (UniProt Q9Y617),NP40-soluble protein abundance,concentration: 0.1mM,1.02 ± 0.031
same,NP40-soluble protein abundance,concentration: 0.5mM,1.02 ± 0.057
UniProt Q9Y5B6 and related entries,NP40-soluble protein abundance,concentration: 0.1mM,1 ± 0.017
same,NP40-soluble protein abundance,concentration: 0.5mM,1.04 ± 0.042
IVNS1ABP (UniProt Q9Y6Y0),NP40-soluble protein abundance,concentration: 0.1mM,0.981 ± 0.039
same,NP40-soluble protein abundance,concentration: 0.5mM,0.987 ± 0.049
MFHAS1 (UniProt Q9Y4C4),NP40-soluble protein abundance,concentration: 0.1mM,1.02 ± 0.029
same,NP40-soluble protein abundance,concentration: 0.5mM,0.982 ± 0.021
UniProt Q9Y4D1 and related entries,NP40-soluble protein abundance,concentration: 0.1mM,0.99 ± 0.017
same,NP40-soluble protein abundance,concentration: 0.5mM,0.9639 ± 0.0094
UniProt Q9Y3I0,NP40-soluble protein abundance,concentration: 0.1mM,0.978 ± 0.019
same,NP40-soluble protein abundance,concentration: 0.5mM,1.01 ± 0.037
UniProt Q9Y6J0 and related entries,NP40-soluble protein abundance,concentration: 0.1mM,0.973 ± 0.0042
same,NP40-soluble protein abundance,concentration: 0.5mM,0.971 ± 0.035
UniProt Q9Y5P4 and related entries,NP40-soluble protein abundance,concentration: 0.1mM,0.974 ± 0.0089
same,NP40-soluble protein abundance,concentration: 0.5mM,0.973 ± 0.026
ATP6V1D (UniProt Q9Y5K8),NP40-soluble protein abundance,concentration: 0.1mM,0.995 ± 0.022
same,NP40-soluble protein abundance,concentration: 0.5mM,0.996 ± 0.026
TIMM13 (UniProt Q9Y5L4),NP40-soluble protein abundance,concentration: 0.1mM,0.992 ± 0.017
same,NP40-soluble protein abundance,concentration: 0.5mM,0.982 ± 0.044
NUBP2 (UniProt Q9Y5Y2),NP40-soluble protein abundance,concentration: 0.1mM,1.027 ± 0.01
same,NP40-soluble protein abundance,concentration: 0.5mM,1.02 ± 0.037
TAF6L (UniProt Q9Y6J9),NP40-soluble protein abundance,concentration: 0.1mM,0.991 ± 0.049
same,NP40-soluble protein abundance,concentration: 0.5mM,0.971 ± 0.032
MAD1L1 (UniProt Q9Y6D9),NP40-soluble protein abundance,concentration: 0.1mM,0.991 ± 0.024
same,NP40-soluble protein abundance,concentration: 0.5mM,1.01 ± 0.043
HYOU1 (UniProt Q9Y4L1),NP40-soluble protein abundance,concentration: 0.1mM,0.977 ± 0.015
same,NP40-soluble protein abundance,concentration: 0.5mM,0.999 ± 0.023
RNF114 (UniProt Q9Y508),NP40-soluble protein abundance,concentration: 0.1mM,1.02 ± 0.017
same,NP40-soluble protein abundance,concentration: 0.5mM,0.996 ± 0.015
UniProt Q9Y5P6 and related entries,NP40-soluble protein abundance,concentration: 0.1mM,1.01 ± 0.028
same,NP40-soluble protein abundance,concentration: 0.5mM,0.979 ± 0.043
UTP18 (UniProt Q9Y5J1),NP40-soluble protein abundance,concentration: 0.1mM,1.005 ± 0.0052
same,NP40-soluble protein abundance,concentration: 0.5mM,1.03 ± 0.034
CD2AP (UniProt Q9Y5K6),NP40-soluble protein abundance,concentration: 0.1mM,0.986 ± 0.016
same,NP40-soluble protein abundance,concentration: 0.5mM,1 ± 0.059
KPTN (UniProt Q9Y664),NP40-soluble protein abundance,concentration: 0.1mM,0.994 ± 0.027
same,NP40-soluble protein abundance,concentration: 0.5mM,0.987 ± 0.057
SUPT16H (UniProt Q9Y5B9),NP40-soluble protein abundance,concentration: 0.1mM,1.03 ± 0.024
same,NP40-soluble protein abundance,concentration: 0.5mM,1.05 ± 0.05
RAPGEF2 (UniProt Q9Y4G8),NP40-soluble protein abundance,concentration: 0.1mM,0.998 ± 0.017
same,NP40-soluble protein abundance,concentration: 0.5mM,0.9967 ± 0.0066
ARFGEF2 (UniProt Q9Y6D5),NP40-soluble protein abundance,concentration: 0.1mM,0.986 ± 0.04
same,NP40-soluble protein abundance,concentration: 0.5mM,0.958 ± 0.037
RBM19 (UniProt Q9Y4C8),NP40-soluble protein abundance,concentration: 0.1mM,1 ± 0.015
same,NP40-soluble protein abundance,concentration: 0.5mM,1 ± 0.035
TLN2 (UniProt Q9Y4G6),NP40-soluble protein abundance,concentration: 0.1mM,0.986 ± 0.025
same,NP40-soluble protein abundance,concentration: 0.5mM,1 ± 0.027
ENPP4 (UniProt Q9Y6X5),NP40-soluble protein abundance,concentration: 0.1mM,1 ± 0.035
same,NP40-soluble protein abundance,concentration: 0.5mM,1.06 ± 0.038
UniProt Q9Y570 and related entries,NP40-soluble protein abundance,concentration: 0.1mM,0.987 ± 0.033
same,NP40-soluble protein abundance,concentration: 0.5mM,1.01 ± 0.04
OAS3 (UniProt Q9Y6K5),NP40-soluble protein abundance,concentration: 0.1mM,0.996 ± 0.016
same,NP40-soluble protein abundance,concentration: 0.5mM,0.9809 ± 0.007
UniProt Q9Y6R1 and related entries,NP40-soluble protein abundance,concentration: 0.1mM,0.983 ± 0.039
same,NP40-soluble protein abundance,concentration: 0.5mM,1.006 ± 0.0077
UniProt Q9Y462 and related entries,NP40-soluble protein abundance,concentration: 0.1mM,0.998 ± 0.04
same,NP40-soluble protein abundance,concentration: 0.5mM,1.002 ± 0.0045
TMED3 (UniProt Q9Y3Q3),NP40-soluble protein abundance,concentration: 0.1mM,1.03 ± 0.025
same,NP40-soluble protein abundance,concentration: 0.5mM,0.999 ± 0.07
ORC6 (UniProt Q9Y5N6),NP40-soluble protein abundance,concentration: 0.1mM,0.9879 ± 0.0078
same,NP40-soluble protein abundance,concentration: 0.5mM,1.03 ± 0.044
UniProt Q9Y692 and related entries,NP40-soluble protein abundance,concentration: 0.1mM,0.977 ± 0.011
same,NP40-soluble protein abundance,concentration: 0.5mM,0.987 ± 0.019
DNMT3A (UniProt Q9Y6K1),NP40-soluble protein abundance,concentration: 0.1mM,0.986 ± 0.038
same,NP40-soluble protein abundance,concentration: 0.5mM,0.977 ± 0.038
X5CMH5 and related entries (UniProt Q03519),NP40-soluble protein abundance,concentration: 0.1mM,1 ± 0.021
same,NP40-soluble protein abundance,concentration: 0.5mM,0.974 ± 0.02
TRPV2 (UniProt Q9Y5S1),NP40-soluble protein abundance,concentration: 0.1mM,1.02 ± 0.012
same,NP40-soluble protein abundance,concentration: 0.5mM,0.982 ± 0.035
UniProt Q9Y4F3 and related entries,NP40-soluble protein abundance,concentration: 0.1mM,1 ± 0.027
same,NP40-soluble protein abundance,concentration: 0.5mM,0.989 ± 0.04
AFG3L2 (UniProt Q9Y4W6),NP40-soluble protein abundance,concentration: 0.1mM,1.02 ± 0.013
same,NP40-soluble protein abundance,concentration: 0.5mM,1.03 ± 0.026
UniProt Q9Y6N5,NP40-soluble protein abundance,concentration: 0.1mM,0.997 ± 0.046
same,NP40-soluble protein abundance,concentration: 0.5mM,0.961 ± 0.068
UniProt Q9Y450 and related entries,NP40-soluble protein abundance,concentration: 0.1mM,0.963 ± 0.025
same,NP40-soluble protein abundance,concentration: 0.5mM,0.988 ± 0.021
WASF2 (UniProt Q9Y6W5),NP40-soluble protein abundance,concentration: 0.1mM,0.993 ± 0.027
same,NP40-soluble protein abundance,concentration: 0.5mM,0.987 ± 0.055
UniProt Q9Y4B4 and related entries,NP40-soluble protein abundance,concentration: 0.1mM,0.99 ± 0.018
same,NP40-soluble protein abundance,concentration: 0.5mM,1 ± 0.033
UniProt Q9Y5T5 and related entries,NP40-soluble protein abundance,concentration: 0.1mM,0.997 ± 0.021
same,NP40-soluble protein abundance,concentration: 0.5mM,0.983 ± 0.023
UniProt Q9Y4B6 and related entries,NP40-soluble protein abundance,concentration: 0.1mM,1.03 ± 0.027
same,NP40-soluble protein abundance,concentration: 0.5mM,0.976 ± 0.04
CTDP1 (UniProt Q9Y5B0),NP40-soluble protein abundance,concentration: 0.1mM,1.02 ± 0.019
same,NP40-soluble protein abundance,concentration: 0.5mM,1.02 ± 0.017
HSPB11 (UniProt Q9Y547),NP40-soluble protein abundance,concentration: 0.1mM,1.02 ± 0.036
same,NP40-soluble protein abundance,concentration: 0.5mM,1.03 ± 0.028
SRPRB (UniProt Q9Y5M8),NP40-soluble protein abundance,concentration: 0.1mM,1 ± 0.026
same,NP40-soluble protein abundance,concentration: 0.5mM,1.03 ± 0.017
UniProt Q9Y5Y5 and related entries,NP40-soluble protein abundance,concentration: 0.1mM,0.965 ± 0.016
same,NP40-soluble protein abundance,concentration: 0.5mM,0.983 ± 0.019
HEBP2 (UniProt Q9Y5Z4),NP40-soluble protein abundance,concentration: 0.1mM,0.9799 ± 0.0015
same,NP40-soluble protein abundance,concentration: 0.5mM,0.97 ± 0.023
UniProt Q9Y6A4,NP40-soluble protein abundance,concentration: 0.1mM,1.04 ± 0.031
same,NP40-soluble protein abundance,concentration: 0.5mM,1 ± 0.1
UniProt Q9Y530,NP40-soluble protein abundance,concentration: 0.1mM,1.06 ± 0.047
same,NP40-soluble protein abundance,concentration: 0.5mM,0.997 ± 0.036
SH3BP1 (UniProt Q9Y3L3),NP40-soluble protein abundance,concentration: 0.1mM,0.991 ± 0.03
same,NP40-soluble protein abundance,concentration: 0.5mM,0.994 ± 0.04
R4GN35 and related entries (UniProt Q5VZ89),NP40-soluble protein abundance,concentration: 0.1mM,0.989 ± 0.029
same,NP40-soluble protein abundance,concentration: 0.5mM,0.972 ± 0.049
UniProt Q9Y5V3 and related entries,NP40-soluble protein abundance,concentration: 0.1mM,1.01 ± 0.069
same,NP40-soluble protein abundance,concentration: 0.5mM,1.01 ± 0.074
UniProt Q9Y4E8 and related entries,NP40-soluble protein abundance,concentration: 0.1mM,0.976 ± 0.02
same,NP40-soluble protein abundance,concentration: 0.5mM,0.996 ± 0.038
UniProt Q9Y6V0-2|Q9Y6V0-5|Q9Y6V0-6,NP40-soluble protein abundance,concentration: 0.1mM,0.992 ± 0.12
same,NP40-soluble protein abundance,concentration: 0.5mM,1.05 ± 0.14
GTF3C3 (UniProt Q9Y5Q9),NP40-soluble protein abundance,concentration: 0.1mM,1.032 ± 0.0049
same,NP40-soluble protein abundance,concentration: 0.5mM,1.03 ± 0.021
YTHDF2 (UniProt Q9Y5A9),NP40-soluble protein abundance,concentration: 0.1mM,1.02 ± 0.026
same,NP40-soluble protein abundance,concentration: 0.5mM,1.04 ± 0.055

# Reprinted from the results shown (3 entries):
target,measurement,setting,value
R4GN35 and related entries (UniProt Q5VZ89),NP40-soluble protein abundance,concentration: 0.5mM,0.972 ± 0.049
UniProt Q9Y5V3 and related entries,NP40-soluble protein abundance,concentration: 0.1mM,1.01 ± 0.069
same,NP40-soluble protein abundance,concentration: 0.5mM,1.01 ± 0.074
